From the supplement of paper PMC10849652
The other results are listed elsewhere or left out.

Chains of the proteins cited; added tags and fusions are not shown. Lines headed by an entry give the natural chain unless they say otherwise; changes in a name come on top.
UniProt O95298, whole entry, looked up: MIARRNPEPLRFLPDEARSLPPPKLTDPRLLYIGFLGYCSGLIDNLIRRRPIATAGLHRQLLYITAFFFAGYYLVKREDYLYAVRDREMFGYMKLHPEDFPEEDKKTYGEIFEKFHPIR
UniProt Q12986: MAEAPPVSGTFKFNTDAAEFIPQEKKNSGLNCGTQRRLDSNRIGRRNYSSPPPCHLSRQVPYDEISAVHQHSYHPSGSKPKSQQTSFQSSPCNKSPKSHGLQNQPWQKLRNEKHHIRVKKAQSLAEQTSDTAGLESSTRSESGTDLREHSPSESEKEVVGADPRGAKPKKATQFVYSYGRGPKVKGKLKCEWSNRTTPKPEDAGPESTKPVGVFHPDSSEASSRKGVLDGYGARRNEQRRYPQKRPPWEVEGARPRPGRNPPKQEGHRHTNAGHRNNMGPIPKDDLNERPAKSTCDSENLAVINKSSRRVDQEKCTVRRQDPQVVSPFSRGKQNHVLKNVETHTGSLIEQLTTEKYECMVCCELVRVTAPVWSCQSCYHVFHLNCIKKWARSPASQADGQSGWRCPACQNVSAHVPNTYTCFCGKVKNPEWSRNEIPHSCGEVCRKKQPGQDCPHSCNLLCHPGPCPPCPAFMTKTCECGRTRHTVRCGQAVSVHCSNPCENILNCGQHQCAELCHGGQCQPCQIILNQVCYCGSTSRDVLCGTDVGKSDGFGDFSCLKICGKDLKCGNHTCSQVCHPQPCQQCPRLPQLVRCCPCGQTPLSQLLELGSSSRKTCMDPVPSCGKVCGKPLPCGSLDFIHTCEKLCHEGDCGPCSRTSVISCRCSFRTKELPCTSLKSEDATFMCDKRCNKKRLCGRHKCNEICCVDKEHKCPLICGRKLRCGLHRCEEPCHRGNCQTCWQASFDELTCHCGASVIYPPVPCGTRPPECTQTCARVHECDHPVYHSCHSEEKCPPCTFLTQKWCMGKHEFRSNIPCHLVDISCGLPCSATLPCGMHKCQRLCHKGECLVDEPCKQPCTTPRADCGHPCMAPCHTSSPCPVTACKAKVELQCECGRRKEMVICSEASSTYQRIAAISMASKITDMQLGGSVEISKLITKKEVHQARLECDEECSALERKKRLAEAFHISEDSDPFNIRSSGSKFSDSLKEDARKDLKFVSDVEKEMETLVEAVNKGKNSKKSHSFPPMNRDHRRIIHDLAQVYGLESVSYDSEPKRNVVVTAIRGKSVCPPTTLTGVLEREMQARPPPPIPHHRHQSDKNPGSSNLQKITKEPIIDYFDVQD
UniProt P56181: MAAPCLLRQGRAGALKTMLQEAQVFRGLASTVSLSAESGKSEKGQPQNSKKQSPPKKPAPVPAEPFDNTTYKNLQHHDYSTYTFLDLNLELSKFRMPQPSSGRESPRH
UniProt O76041: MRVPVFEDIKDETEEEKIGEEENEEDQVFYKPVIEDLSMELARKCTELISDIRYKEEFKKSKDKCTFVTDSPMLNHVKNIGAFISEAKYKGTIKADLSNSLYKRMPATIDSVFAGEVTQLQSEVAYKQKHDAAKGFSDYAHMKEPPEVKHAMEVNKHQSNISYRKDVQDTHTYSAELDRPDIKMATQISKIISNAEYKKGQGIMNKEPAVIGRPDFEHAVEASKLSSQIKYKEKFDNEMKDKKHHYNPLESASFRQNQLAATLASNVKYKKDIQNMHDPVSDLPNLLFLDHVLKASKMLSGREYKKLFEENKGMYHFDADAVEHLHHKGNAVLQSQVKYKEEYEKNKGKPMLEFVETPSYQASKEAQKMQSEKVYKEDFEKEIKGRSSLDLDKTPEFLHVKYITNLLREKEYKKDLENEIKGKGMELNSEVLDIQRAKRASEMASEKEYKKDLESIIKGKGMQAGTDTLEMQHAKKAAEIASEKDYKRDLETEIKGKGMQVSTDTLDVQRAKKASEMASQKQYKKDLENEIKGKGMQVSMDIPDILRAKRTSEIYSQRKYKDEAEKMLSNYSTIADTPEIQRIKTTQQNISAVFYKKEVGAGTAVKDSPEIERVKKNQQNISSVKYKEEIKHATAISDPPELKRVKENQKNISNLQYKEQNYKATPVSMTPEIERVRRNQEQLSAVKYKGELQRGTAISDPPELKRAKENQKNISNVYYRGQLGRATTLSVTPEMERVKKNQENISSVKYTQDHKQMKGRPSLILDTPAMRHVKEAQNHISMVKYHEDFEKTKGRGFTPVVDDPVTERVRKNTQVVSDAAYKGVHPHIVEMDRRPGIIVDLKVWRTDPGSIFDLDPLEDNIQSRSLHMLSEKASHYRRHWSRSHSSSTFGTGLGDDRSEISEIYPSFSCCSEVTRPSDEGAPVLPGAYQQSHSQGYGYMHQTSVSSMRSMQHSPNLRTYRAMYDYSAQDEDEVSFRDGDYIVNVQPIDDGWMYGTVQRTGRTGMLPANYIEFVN
UniProt P23511, whole entry, looked up: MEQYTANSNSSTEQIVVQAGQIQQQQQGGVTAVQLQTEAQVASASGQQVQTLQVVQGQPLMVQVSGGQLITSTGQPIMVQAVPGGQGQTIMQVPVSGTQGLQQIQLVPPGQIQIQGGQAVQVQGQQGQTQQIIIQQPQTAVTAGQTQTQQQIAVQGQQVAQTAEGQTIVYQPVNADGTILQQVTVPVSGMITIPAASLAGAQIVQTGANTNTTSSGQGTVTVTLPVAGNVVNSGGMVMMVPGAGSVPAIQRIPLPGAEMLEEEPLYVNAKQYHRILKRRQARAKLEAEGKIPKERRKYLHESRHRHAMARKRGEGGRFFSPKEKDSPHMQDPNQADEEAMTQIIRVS
UniProt Q6NW34: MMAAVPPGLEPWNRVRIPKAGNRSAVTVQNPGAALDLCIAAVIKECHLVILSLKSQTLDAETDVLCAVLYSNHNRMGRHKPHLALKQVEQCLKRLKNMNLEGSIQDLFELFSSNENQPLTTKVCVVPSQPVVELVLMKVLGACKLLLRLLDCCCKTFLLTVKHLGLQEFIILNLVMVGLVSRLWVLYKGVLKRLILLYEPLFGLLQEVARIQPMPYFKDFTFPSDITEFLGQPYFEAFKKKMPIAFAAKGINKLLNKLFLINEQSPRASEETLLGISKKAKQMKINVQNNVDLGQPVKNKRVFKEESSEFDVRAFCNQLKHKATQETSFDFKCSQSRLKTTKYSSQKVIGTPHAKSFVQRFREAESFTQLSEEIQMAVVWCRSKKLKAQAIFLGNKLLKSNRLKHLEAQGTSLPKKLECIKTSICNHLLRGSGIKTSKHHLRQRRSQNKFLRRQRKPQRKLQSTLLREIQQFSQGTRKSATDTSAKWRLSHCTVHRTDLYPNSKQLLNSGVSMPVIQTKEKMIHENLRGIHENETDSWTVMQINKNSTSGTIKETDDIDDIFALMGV
UniProt Q9BPW8: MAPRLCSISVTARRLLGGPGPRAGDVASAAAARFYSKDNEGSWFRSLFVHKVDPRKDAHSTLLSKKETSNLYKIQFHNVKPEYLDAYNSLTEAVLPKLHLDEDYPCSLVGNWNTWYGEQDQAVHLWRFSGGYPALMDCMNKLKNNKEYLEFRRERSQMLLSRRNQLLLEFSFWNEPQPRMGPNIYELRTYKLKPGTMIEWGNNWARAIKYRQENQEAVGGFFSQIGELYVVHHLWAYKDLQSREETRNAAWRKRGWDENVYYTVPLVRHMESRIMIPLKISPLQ
UniProt O75306, whole entry, looked up: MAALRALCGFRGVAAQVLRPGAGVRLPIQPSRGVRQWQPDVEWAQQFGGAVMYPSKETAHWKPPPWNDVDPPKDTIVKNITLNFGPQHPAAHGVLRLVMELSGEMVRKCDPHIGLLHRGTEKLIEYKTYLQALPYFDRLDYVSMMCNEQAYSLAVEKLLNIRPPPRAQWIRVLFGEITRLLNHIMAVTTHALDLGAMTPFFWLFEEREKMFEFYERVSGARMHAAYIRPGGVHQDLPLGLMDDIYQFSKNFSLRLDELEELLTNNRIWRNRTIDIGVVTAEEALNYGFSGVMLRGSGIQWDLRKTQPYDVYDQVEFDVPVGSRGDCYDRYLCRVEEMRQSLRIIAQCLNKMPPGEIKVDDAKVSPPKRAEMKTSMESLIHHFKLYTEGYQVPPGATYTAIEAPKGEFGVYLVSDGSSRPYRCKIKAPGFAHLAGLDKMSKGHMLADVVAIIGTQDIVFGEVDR
UniProt Q8IXH7, whole entry, looked up: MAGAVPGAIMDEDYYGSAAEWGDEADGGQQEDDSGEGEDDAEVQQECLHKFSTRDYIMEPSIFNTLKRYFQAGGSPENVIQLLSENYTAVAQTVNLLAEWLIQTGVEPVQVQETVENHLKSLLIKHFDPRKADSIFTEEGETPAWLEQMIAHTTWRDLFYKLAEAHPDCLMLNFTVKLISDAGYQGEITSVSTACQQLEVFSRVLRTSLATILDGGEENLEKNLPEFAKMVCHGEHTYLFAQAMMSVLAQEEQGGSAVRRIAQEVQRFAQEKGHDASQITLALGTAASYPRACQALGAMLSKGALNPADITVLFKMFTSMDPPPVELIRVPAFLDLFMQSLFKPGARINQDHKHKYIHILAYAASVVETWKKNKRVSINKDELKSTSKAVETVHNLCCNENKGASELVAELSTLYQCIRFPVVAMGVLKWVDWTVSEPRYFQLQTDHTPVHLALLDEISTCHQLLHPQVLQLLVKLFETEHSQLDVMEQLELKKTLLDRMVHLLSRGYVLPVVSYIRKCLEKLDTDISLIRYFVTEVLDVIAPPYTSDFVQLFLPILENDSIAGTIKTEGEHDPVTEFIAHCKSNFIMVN
UniProt P19838: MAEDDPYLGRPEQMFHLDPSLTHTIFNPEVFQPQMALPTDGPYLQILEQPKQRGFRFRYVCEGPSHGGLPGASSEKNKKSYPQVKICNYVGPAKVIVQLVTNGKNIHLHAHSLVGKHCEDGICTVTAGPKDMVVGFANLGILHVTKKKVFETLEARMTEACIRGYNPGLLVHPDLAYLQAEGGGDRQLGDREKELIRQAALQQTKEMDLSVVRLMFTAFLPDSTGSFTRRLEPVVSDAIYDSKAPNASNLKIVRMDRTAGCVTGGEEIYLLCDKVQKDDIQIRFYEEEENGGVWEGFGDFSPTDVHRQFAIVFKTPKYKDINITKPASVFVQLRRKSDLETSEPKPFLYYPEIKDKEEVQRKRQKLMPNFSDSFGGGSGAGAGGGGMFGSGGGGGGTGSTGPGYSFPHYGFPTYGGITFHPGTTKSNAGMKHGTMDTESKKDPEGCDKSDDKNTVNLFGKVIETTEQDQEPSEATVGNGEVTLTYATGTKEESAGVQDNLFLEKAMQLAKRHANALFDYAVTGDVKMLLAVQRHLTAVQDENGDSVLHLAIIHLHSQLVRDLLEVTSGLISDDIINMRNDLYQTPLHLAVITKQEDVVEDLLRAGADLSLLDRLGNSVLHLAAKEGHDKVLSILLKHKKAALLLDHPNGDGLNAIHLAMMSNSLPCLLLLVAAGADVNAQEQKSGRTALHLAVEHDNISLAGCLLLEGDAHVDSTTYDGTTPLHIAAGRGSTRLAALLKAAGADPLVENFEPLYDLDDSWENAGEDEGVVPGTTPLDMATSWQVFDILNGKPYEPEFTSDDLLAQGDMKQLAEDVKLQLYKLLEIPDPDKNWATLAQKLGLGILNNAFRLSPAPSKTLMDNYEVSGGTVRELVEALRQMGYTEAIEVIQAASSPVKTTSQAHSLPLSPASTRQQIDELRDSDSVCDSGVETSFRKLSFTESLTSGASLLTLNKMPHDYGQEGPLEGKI
UniProt Q8NC96: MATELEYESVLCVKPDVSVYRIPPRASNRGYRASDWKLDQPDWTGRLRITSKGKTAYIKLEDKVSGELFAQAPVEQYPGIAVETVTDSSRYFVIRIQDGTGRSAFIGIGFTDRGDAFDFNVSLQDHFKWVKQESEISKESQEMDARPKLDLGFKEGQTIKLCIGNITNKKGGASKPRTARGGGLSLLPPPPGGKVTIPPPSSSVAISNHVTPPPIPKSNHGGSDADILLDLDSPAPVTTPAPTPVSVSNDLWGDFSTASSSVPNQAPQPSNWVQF
UniProt P18615, whole entry, looked up: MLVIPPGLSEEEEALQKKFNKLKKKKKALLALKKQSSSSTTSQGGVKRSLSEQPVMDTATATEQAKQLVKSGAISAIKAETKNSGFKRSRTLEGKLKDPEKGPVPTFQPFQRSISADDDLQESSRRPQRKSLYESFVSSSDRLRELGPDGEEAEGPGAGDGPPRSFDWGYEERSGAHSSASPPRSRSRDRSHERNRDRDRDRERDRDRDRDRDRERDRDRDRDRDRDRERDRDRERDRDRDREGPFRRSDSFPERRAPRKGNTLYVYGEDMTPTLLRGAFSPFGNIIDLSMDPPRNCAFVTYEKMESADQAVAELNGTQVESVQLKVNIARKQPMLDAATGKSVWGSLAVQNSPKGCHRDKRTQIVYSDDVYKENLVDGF
UniProt Q8TDX7: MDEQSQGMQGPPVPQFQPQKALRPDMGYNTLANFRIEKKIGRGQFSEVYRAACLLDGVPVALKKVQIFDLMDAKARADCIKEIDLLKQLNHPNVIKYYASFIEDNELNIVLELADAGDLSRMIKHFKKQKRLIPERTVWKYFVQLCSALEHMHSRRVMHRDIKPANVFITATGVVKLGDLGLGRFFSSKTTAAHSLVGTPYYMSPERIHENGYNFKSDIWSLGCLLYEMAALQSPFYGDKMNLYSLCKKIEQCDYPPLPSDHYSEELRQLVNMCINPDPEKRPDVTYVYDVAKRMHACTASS

Columns and labels:
Test in all cases: log2 fold change, soluble protein after heating vs DMSO (PISA); higher = thermal stabilisation; K562 lysate, 10 uM; active = over 0.2 and 3.5 SD of the protein, either way, in both replicates (recomputed)
[1] = compound: CS(=O)(=O)CCNCc1ccc(-c2ccc3ncnc(Nc4ccc(OCc5cccc(F)c5)c(Cl)c4)c3c2)o1 [lapatinib]
Summary of the method: (§1)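 A 30 min treatment with 10 μM compound was applied to crude K562 extract at 1 mg/mL protein in PBS pH 7.4 with 1 mM MgCl2. Heating for 3 min spanned 48°C-58°C, after which aliquots were pooled, adjusted to 0.5% NP-40 at 4°C and spun at 21,000xg for 90 min. TMTpro 16plex LC-MS/MS of the supernatant, with channel sums equalised, gave values recorded as log-two fold change in thermal stability against solvent controls, from duplicates.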

[2] = compound: CS(=O)(=O)N1CCN(Cc2cc3nc(-c4cccc5[nH]ncc45)nc(N4CCOCC4)c3s2)CC1 [pictilisib]
Summary of the method: as §1

[3] = compound: C[C@@H](Oc1cc(-c2cnn(C3CCNCC3)c2)cnc1N)c1c(Cl)ccc(F)c1Cl [crizotinib]
Summary of the method: as §1

[4] = compound: C[C@H](C1=CC=C(C=C1)C(=O)NC2=C3C=CNC3=NC=C2)N
Summary of the method: as §1

[5] = compound: C[C@H](Nc1ncnc2nc[nH]c12)c1cc2cccc(Cl)c2c(=O)n1-c1ccccc1 [duvelisib]
Summary of the method: as §1

[6] = compound: Cc1cc(Nc2cc(CN3CCOCC3)c3nc(C)c(Cc4ccc(Cl)cc4F)n3n2)n[nH]1 [gandotinib]
Summary of the method: as §1

[7] = compound: Cc1cc(Nc2cc(N3CCN(C)CC3)nc(Sc3ccc(NC(=O)C4CC4)cc3)n2)n[nH]1 [tozasertib]
Summary of the method: as §1

[8] = compound: Cc1ccc(-n2nc(C(C)(C)C)cc2NC(=O)Nc2ccc(OCCN3CCOCC3)c3ccccc23)cc1 [doramapimod]
Summary of the method: as §1

[9] = compound: Cc1ccc(NC(=O)c2ccc(CN3CC[C@H](N(C)C)C3)c(C(F)(F)F)c2)cc1Nc1nccc(-c2cncnc2)n1 [bafetinib]
Summary of the method: as §1

[10] = compound: Cc1cccc(CC(=O)N2CCc3c2ccc(-c2cn(C)c4ncnc(N)c24)c3F)n1
Summary of the method: as §1

[11] = compound: Cc1cn(-c2cc(NC(=O)c3ccc(C)c(Nc4nccc(-c5cccnc5)n4)c3)cc(C(F)(F)F)c2)cn1 [nilotinib]
Summary of the method: as §1

[12] = compound: Cc1nc(Nc2n[nH]c3c2CN(C(=O)N[C@H](CN(C)C)c2ccccc2)C3(C)C)c2sccc2n1
Summary of the method: as §1

[13] = compound: Cc1nc(Nc2ncc(C(=O)Nc3c(C)cccc3Cl)s2)cc(N2CCN(CCO)CC2)n1 [dasatinib]
Summary of the method: as §1

[14] = compound: Cc1ncc(-c2ccnc(Nc3ccc(S(C)(=O)=O)cc3)n2)n1C(C)C
Summary of the method: as §1

[15] = compound: Cn1cc(-c2ccc3c(c2)CCN3C(=O)Cc2cccc(C(F)(F)F)c2)c2c(N)ncnc21
Summary of the method: as §1

[16] = compound: Cn1cc(CNCC2CCN(c3ncc(C(=O)NO)cn3)CC2)c2ccccc21 [quisinostat]
Summary of the method: as §1

[17] = compound: Cn1cncc1[C@@](N)(c1ccc(Cl)cc1)c1ccc2c(c1)c(-c1cccc(Cl)c1)cc(=O)n2C [tipifarnib]
Summary of the method: as §1

[18] = compound: NC(=O)Nc1cc(-c2cccc(F)c2)sc1C(=O)N[C@H]1CCCNC1
Summary of the method: as §1

[19] = compound: NC(=O)c1cnc(N[C@@H]2CCCC[C@@H]2N)nc1Nc1cccc(-n2nccn2)c1
Summary of the method: as §1

[20] = compound: NC1(c2ccc(-c3nc4ccn5c(=O)[nH]nc5c4cc3-c3ccccc3)cc2)CCC1
Summary of the method: as §1

Measured: log2 fold change

NLRP2 (UniProt Q9NX02)
inactive: [1] 0.004 | [2] -0.025 | [3] -0.029 | [4] 0.091 | [5] 0.005 | [6] -0.049 | [7] 0.005 | [8] 0.051 | [9] -0.023 | [10] -0.018 | [11] -0.002 | [12] 0.013 | [13] -0.019 | [14] 0.007 | [15] 0.032 | [16] -0.031 | [17] -0.008 | [18] 0.013 | [19] 0.003 | [20] 0.026

NDUFC2 (UniProt O95298)
inactive: [1] 0.056 | [2] 0.1 | [3] 0.111 | [4] 0.041 | [5] 0.026 | [6] -0.055 | [7] 0.027 | [8] 0.01 | [9] -0.072 | [10] 0.007 | [11] -0.073 | [12] 0.053 | [13] -0.057 | [14] 0.04 | [15] 0.065 | [16] 0.163 | [17] 0.062 | [18] -0.071 | [19] -0.007 | [20] -0.04

NFX1 (UniProt Q12986)
inactive: [1] -0.027 | [2] 0.006 | [3] -0.001 | [4] 0.035 | [5] -0.107 | [6] 0.006 | [7] -0.123 | [8] -0.017 | [9] 0.021 | [10] 0.083 | [11] -0.019 | [12] 0.068 | [13] 0.079 | [14] 0.062 | [15] 0.001 | [16] -0.038 | [17] -0.037 | [18] 0.009 | [19] 0.028 | [20] -0.038

NDUFV3 isoform 2 (UniProt P56181)
inactive: [1] 0.006 | [2] 0.012 | [3] 0.039 | [4] -0.062 | [5] -0.014 | [6] 0.054 | [7] -0.022 | [8] -0.046 | [9] 0.016 | [10] 0.03 | [11] 0.006 | [12] 0.023 | [13] -0.002 | [14] 0.006 | [15] -0.011 | [16] 0.008 | [17] -0.01 | [18] -0.03 | [19] -0.016 | [20] 0.002

NEBL (UniProt O76041)
inactive: [1] 0.054 | [2] -0.046 | [3] 0.09 | [4] 0.106 | [5] 0.023 | [6] -0.204 | [7] 0.01 | [8] -0.006 | [9] -0.037 | [10] -0.076 | [11] -0.024 | [12] 0.019 | [13] 0.089 | [14] 0.032 | [15] -0.007 | [16] -0.045 | [17] 0.008 | [18] -0.065 | [19] -0.018 | [20] -0.03

NFYA (UniProt P23511)
inactive: [1] 0.067 | [2] -0.141 | [3] 0.027 | [4] 0.027 | [5] -0.003 | [6] 0.005 | [7] -0.053 | [8] -0.029 | [9] 0.125 | [10] -0.047 | [13] -0.066 | [15] 0 | [16] 0.027 | [18] -0.065 | [19] -0.161 | [20] 0.027

NEPRO (UniProt Q6NW34)
inactive: [1] 0.035 | [2] -0.089 | [3] -0.089 | [4] -0.289 | [5] 0.125 | [6] 0.166 | [7] 0.018 | [8] 0.153 | [9] -0.131 | [10] -0.019 | [11] 0.137 | [12] 0.062 | [13] -0.082 | [14] -0.011 | [15] 0.021 | [16] -0.095 | [17] 0.011 | [18] 0.07 | [19] -0.105 | [20] -0.036

NIBAN2 (UniProt Q96TA1)
inactive: [1] 0.005 | [2] 0.009 | [3] -0.044 | [4] 0.089 | [5] 0.023 | [6] -0.039 | [7] 0.008 | [8] 0.021 | [9] -0.023 | [10] -0.027 | [11] 0.004 | [12] 0.028 | [13] 0.006 | [14] -0.01 | [15] 0.005 | [16] -0.032 | [17] -0.014 | [18] 0.012 | [19] 0.016 | [20] 0.035

NIPSNAP1 (UniProt Q9BPW8)
inactive: [1] 0.015 | [2] -0.024 | [3] -0.086 | [4] 0.001 | [5] -0.1 | [6] 0.008 | [7] 0.016 | [8] -0.083 | [9] -0.094 | [10] 0.003 | [11] 0.101 | [12] 0.021 | [13] -0.032 | [14] 0.003 | [15] -0.017 | [16] -0.015 | [17] -0.009 | [18] 0.042 | [19] -0.004 | [20] -0.049

NDUFS2 (UniProt O75306)
inactive: [1] -0.023 | [2] -0.019 | [3] -0.023 | [4] 0.015 | [5] -0.005 | [6] -0.033 | [7] -0.016 | [8] 0.013 | [9] -0.028 | [10] 0.012 | [11] 0.033 | [12] -0.039 | [13] -0.01 | [14] -0.003 | [15] 0.005 | [16] 0.018 | [17] -0.031 | [18] 0 | [19] -0.009 | [20] 0.002

NELFCD (UniProt Q8IXH7)
inactive: [1] -0.035 | [2] -0.048 | [3] -0.043 | [4] 0.074 | [5] 0.017 | [6] -0.087 | [7] -0.025 | [8] 0.045 | [9] -0.105 | [10] -0.029 | [11] -0.024 | [12] 0.015 | [13] -0.019 | [14] -0.025 | [15] 0.034 | [16] -0.083 | [17] -0.032 | [18] 0.046 | [19] 0.013 | [20] -0.031

Pulled one by one from the list above (two):
NIBAN2 (UniProt Q96TA1)
inactive: [1] 0.005 | [2] 0.009 | [3] -0.044 | [4] 0.089 | [5] 0.023 | [6] -0.039 | [7] 0.008 | [8] 0.021 | [9] -0.023 | [10] -0.027 | [11] 0.004 | [12] 0.028 | [13] 0.006 | [14] -0.01 | [15] 0.005 | [16] -0.032 | [17] -0.014 | [18] 0.012 | [19] 0.016 | [20] 0.035

NELFCD (UniProt Q8IXH7)
inactive: [1] -0.035 | [2] -0.048 | [3] -0.043 | [4] 0.074 | [5] 0.017 | [6] -0.087 | [7] -0.025 | [8] 0.045 | [9] -0.105 | [10] -0.029 | [11] -0.024 | [12] 0.015 | [13] -0.019 | [14] -0.025 | [15] 0.034 | [16] -0.083 | [17] -0.032 | [18] 0.046 | [19] 0.013 | [20] -0.031

Next records follow.

NFKB1 isoform 2 (UniProt P19838)
inactive: [1] -0.008 | [2] 0.007 | [3] -0.033 | [4] -0.019 | [5] -0.008 | [6] -0.018 | [7] -0.006 | [9] -0.138 | [10] 0.028 | [11] 0.047 | [12] 0.02 | [14] -0.011 | [15] -0.052 | [16] 0.01 | [17] -0.019 | [18] 0.052 | [19] 0.005 | [20] 0.025

NEBL isoform 2 (UniProt O76041)
inactive: [1] 0.003 | [2] 0.044 | [3] 0.059 | [4] -0.135 | [5] -0.046 | [6] 0.094 | [7] -0.018 | [8] -0.018 | [9] 0.105 | [10] 0.073 | [11] -0.022 | [12] -0.001 | [13] -0.029 | [14] 0.015 | [15] -0.072 | [16] 0.012 | [17] -0.021 | [18] -0.017 | [19] -0.027 | [20] -0.007

NECAP1 (UniProt Q8NC96)
inactive: [1] -0.009 | [2] -0.056 | [3] -0.056 | [4] -0.108 | [5] -0.01 | [6] 0.139 | [7] 0.023 | [8] 0.014 | [9] -0.029 | [10] 0.068 | [11] -0.013 | [12] -0.041 | [13] 0.006 | [14] -0.012 | [15] 0.041 | [16] -0.18 | [17] 0.001 | [18] 0.025 | [19] 0.011 | [20] -0.003

NELFE (UniProt P18615)
inactive: [1] 0 | [2] 0.018 | [3] -0.014 | [4] -0.036 | [5] -0.003 | [6] 0.002 | [7] 0.01 | [8] 0.001 | [9] -0.003 | [10] 0.058 | [11] -0.013 | [12] -0.01 | [13] 0.003 | [14] 0.01 | [15] -0.015 | [16] -0.068 | [17] -0.013 | [18] -0.004 | [19] 0.002 | [20] 0.022

NEK7 (UniProt Q8TDX7)
inactive: [1] -0.035 | [2] -0.018 | [3] -0.045 | [4] -0.062 | [5] -0.026 | [6] -0.031 | [7] -0.022 | [8] 0.016 | [9] -0.026 | [10] 0.15 | [11] 0.003 | [12] 0.016 | [13] -0.03 | [14] 0.045 | [15] 0.168 | [16] -0.018 | [17] -0.006 | [18] 0.033 | [19] 0.018 | [20] 0.01
